Experimental data reported in article PMC7132798.

The chains behind the UniProt entries cited, without tags or fusion partners.
UniProt Q6PB44: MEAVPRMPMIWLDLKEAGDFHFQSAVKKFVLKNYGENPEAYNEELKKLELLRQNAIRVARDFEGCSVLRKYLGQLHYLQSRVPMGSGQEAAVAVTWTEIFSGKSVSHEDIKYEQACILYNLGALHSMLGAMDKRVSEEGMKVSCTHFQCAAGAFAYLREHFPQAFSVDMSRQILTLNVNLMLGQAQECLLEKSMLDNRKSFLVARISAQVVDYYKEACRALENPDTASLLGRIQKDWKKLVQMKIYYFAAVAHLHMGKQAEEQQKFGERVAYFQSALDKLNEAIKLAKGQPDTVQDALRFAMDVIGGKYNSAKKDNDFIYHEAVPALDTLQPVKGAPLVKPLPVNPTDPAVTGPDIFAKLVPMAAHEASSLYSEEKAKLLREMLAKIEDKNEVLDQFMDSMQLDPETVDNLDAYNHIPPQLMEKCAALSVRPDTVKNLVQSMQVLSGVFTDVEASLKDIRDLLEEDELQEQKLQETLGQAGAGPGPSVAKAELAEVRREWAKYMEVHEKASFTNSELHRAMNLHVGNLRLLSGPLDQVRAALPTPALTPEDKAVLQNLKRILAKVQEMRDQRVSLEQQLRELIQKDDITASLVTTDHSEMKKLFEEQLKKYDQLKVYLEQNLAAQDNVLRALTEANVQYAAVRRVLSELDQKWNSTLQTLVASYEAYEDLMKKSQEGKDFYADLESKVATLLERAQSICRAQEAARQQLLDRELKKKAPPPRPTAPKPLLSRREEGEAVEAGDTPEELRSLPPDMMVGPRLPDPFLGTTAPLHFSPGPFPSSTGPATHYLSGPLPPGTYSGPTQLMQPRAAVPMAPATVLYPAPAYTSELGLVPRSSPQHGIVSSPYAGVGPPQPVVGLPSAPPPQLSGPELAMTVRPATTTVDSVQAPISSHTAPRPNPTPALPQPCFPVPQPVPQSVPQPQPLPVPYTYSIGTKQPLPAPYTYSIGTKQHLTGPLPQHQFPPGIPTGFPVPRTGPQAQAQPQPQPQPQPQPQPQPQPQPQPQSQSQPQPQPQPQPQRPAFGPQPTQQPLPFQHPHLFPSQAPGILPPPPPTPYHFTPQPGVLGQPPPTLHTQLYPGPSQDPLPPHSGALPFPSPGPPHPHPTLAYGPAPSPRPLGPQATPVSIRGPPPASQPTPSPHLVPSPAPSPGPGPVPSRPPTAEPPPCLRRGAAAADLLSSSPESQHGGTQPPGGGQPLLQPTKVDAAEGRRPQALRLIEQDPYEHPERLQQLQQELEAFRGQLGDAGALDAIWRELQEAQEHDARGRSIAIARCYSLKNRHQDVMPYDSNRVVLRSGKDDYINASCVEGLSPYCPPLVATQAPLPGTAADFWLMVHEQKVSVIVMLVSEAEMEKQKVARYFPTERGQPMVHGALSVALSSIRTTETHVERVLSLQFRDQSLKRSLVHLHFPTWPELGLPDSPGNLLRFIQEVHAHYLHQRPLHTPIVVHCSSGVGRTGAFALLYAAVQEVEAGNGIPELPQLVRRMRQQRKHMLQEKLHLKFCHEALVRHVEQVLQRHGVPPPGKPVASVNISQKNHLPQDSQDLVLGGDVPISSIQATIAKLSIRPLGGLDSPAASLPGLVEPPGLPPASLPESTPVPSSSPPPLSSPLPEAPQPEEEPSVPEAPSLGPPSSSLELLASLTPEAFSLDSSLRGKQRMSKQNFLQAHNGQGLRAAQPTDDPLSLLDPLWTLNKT

Molecular target: T1, Bicaudal-D1 (BICD1), endogenous (mouse (endogenous in N2A-FLAG-TrkB cells and ES-MNs)) (UniProt Q8BR07)
T1 sequence: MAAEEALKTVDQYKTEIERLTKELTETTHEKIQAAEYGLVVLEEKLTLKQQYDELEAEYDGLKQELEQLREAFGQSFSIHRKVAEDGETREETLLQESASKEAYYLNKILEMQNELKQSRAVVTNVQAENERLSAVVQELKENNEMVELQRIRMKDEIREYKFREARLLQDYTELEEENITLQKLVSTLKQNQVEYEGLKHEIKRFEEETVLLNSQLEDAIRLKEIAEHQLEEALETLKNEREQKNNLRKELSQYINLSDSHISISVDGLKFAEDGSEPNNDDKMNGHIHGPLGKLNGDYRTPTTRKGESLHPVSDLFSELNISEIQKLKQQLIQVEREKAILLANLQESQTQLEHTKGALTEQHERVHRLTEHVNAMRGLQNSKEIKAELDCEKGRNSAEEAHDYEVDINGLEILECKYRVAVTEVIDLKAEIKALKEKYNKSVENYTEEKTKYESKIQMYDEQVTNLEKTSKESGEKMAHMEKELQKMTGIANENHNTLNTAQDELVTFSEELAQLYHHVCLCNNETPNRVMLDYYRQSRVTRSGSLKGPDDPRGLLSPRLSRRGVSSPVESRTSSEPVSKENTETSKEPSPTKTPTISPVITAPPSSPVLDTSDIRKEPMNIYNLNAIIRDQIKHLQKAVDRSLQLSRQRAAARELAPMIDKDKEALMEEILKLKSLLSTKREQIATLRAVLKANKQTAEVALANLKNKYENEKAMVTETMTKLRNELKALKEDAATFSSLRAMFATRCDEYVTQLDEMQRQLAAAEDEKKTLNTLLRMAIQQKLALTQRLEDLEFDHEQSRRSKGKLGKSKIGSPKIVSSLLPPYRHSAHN
Test: affinity purification with mass spectrometry; anti-BICD1 antibody on Protein-G Dynabeads; lysates of ES-MNs and N2A-FLAG-TrkB cells in 1% NP40 IP buffer, serum-starved 3 h, with or without 100 ng/ml BDNF for 15 min; LTQ-Orbitrap-XL

Substance	binding
cytoplasmic dynein heavy chain	binds
protein tyrosine phosphatase, non-receptor type 23 (PTPN23), endogenous (from UniProt Q6PB44 1-1692)	binds

No constants are given. Whether binding was seen depends on the method and setting. In cells and extracts the contact can be indirect. These calls come from enrichment with a bait or labelling near it, and not all partners need be listed. Tags and fused reporters may be left off the sequences shown.
